According to patent US20120100074A1 (Teva, published 2012):
Changes are numbered by the printed parent chain. Results are given in words; binding and its absence hold for the method and conditions named. Some binding calls cover weakened binding; strength is not graded here.

By UniProt entry, the sequences of proteins in these tests, tags left out. Residues count along the entry.
UniProt O43557, residues 83-240: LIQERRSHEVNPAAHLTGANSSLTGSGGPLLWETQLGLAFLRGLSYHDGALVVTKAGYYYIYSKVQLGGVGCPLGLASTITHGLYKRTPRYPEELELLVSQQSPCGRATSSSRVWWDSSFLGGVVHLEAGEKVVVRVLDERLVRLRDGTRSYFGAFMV

B1: murine anti-LIGHT monoclonal antibody 10D11 (antibody, V domains shown)
VH: EIQLQQSGPDLVKPGASVKVSCKASGYSFTDYYIYWVRQSHGKSLEWIGYIDPYNGGTKYNQKFKDTASLTVDKSSSTAFMHLNSLTSEDSAVYYCARTSGSSWFPYWGQGTLVTVSA
VL: DIVLTQSPATLSVTPGDSVSLSCRASQSISNNLHWYQQKSHESPRLLIKYTYQSISGIPSRFSGSGSGTDFTLTINSVETEDFGMYFCQQSNRWPLTFGAGTKLELKR
notes: Mouse hybridoma monoclonal antibody; also called m10D11; mD10D11
B2: murine anti-LIGHT monoclonal antibody 5E10 (antibody, V domains shown)
VH: QVQLQQSGPELVKPGASVKISCKASGYSFTSYYIHWVKQRPGQGLEWIGWIFPGSDITKYNEKFKGKATLTADTSSSTAYMQLSSLTSEDSTVYFCTREDYGISTYSAMDFWGQGTSVTVSS
VL: DIVMTQSHKFMSTSVGDRVSITCKASQDVGTAVAWYQQKPGQSPKLLIYWASTRHTGVPDRFTGSGSGPDFTLTISNVQSEDLADYFCQQYSSYPLTFGSGTKLEIKR
B3: murine anti-LIGHT monoclonal antibody 13C7 (antibody, V domains shown)
VH: QVQLQQSGAELVRPGTSVRVSCKASGYAFTNYLIEWIKQRPGQGLEWIGVINPGSGDTKYNENFKGKATLTADISSSTAYLQLSSLTSDDSAVYFCAGWNYWGQGTTLTVSS
VL: DVVMTQTPLSLPVSLGDQASISCRSSQSLLHSNGNTYFHWYLQKPGQSPELLIYKVSNRFSGVPDRFSGSGSGTDFTLKISRVEAEDLGVYFCSQSTHVPYTFGGGTKLEIKR
B4: murine anti-LIGHT monoclonal antibody 14G8 (antibody, V domains shown)
VH: QVQLQQSGAELVRPGTSVQVSCKASGYSFTTYLIEWIKQRPGQGLEWIGVINPGTGETKYNENFRAKAIMTADKYSSTAYMQLSSLTADDSAVYFCARWDRWGQGTTLTVSS
VL: B3 VL with T7A, A19V, S28N, L30V
B5: murine anti-LIGHT monoclonal antibody 18B1 (antibody, V domains shown)
VH: QVQLQQPGAELVRPGTSVKLSCKASGYSFTTYWMNWVKQRPGQDLEWIGMIHPSDSESRLNQKFIDKATLSADKSSSTAYMLLNSPTSEDSAVYYCAFGNYVWAMDYWGQGTSVTVSS
VL: DIVLTQSPASLVVSLGQRATISCRASKSVSTSGYTYMHWYQQKPGQPPKLLIYITSNLESGVPARFSGSGSGTDFTLNIHPVEEEDAATYYCQHSRELPYTFGGGTKLEIKR

The binders below were run against LIGHT (TNFSF14), recombinant soluble protein (human) (UniProt O43557) (assay: binding assays (direct binding ELISA screen)).
B1 was tested, and the binding was “binds”. In the case of B2, the binding is reported as “binds”. B3 was tested, and the binding was “binds”. With B4 the binding was “binds”. With B5 the binding was “binds”.
